## Library screen at single concentrations

Amino acid sequences for entries named in this document (tags omitted). Residues count along the entry.
UniProt Q4DA54, 1-478: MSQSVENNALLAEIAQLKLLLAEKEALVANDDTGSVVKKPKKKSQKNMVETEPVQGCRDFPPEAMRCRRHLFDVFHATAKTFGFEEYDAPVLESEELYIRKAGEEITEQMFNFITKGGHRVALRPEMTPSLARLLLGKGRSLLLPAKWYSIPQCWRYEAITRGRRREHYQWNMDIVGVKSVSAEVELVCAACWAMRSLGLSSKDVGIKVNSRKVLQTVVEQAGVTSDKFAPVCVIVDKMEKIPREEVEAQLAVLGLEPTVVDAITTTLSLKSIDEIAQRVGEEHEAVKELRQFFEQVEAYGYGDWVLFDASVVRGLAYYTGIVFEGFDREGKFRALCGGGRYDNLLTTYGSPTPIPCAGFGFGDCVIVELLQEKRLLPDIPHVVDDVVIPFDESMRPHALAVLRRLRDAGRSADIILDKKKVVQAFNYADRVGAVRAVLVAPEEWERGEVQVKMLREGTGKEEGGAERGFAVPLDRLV
UniProt P9WNZ1, whole entry: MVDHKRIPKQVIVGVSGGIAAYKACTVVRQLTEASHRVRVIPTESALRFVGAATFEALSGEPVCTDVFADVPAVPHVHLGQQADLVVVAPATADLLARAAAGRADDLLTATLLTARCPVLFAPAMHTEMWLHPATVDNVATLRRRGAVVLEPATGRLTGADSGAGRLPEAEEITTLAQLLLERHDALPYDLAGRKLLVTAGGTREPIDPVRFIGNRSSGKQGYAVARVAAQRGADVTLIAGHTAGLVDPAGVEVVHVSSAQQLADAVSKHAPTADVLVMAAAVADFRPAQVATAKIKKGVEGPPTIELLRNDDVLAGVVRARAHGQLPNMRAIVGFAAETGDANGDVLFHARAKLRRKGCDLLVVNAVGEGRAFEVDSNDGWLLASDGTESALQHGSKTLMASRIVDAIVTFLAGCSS
UniProt A4I591, 1-473: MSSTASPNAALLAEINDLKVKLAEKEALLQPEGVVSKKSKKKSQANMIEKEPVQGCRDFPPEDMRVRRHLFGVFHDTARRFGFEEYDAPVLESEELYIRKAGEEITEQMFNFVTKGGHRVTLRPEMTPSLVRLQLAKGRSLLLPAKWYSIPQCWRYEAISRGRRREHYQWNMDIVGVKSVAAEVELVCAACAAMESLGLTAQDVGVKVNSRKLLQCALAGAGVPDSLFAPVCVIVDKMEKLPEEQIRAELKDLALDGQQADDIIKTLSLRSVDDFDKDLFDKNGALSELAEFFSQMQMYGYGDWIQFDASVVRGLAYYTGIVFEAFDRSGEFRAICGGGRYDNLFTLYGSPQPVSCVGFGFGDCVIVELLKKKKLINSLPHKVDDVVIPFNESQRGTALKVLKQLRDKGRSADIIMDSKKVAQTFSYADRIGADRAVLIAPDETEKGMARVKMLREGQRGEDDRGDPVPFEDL

A: 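Histidine-tRNA ligase, Trypanosoma cruzi CL Brener (UniProt Q4DA54). Enzyme assay of histidyl-tRNA synthetase; the read-out is not stated. Tested at 30 µM. Direction is inferred from retests: higher values go with stronger inhibition. Of about 69,000 compounds tested this way, about 31 (0.045%) reached 50% or more in at least one test.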
B: 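Coenzyme A biosynthesis protein CoaBC, Mycobacterium tuberculosis (UniProt P9WNZ1). Enzyme assay of CoaBC with a phosphate dye (Biomol Green) read at 650 nm. Compounds at 30 µM. Higher reads as stronger inhibition, judged from the few compounds that gave an IC50. Most strong results did not repeat in a second test. Size under these conditions: about 67,000 compounds, about 40 of them at 50% or above in at least one test.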
C: 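Enzyme assay of histidyl-tRNA synthetase; the read-out is not stated. Target: Histidine-tRNA ligase, Leishmania infantum (UniProt A4I591). Tested at 30 µM. The record gives no direction; compounds that gave an IC50 in retests scored well above the rest, so higher reads as stronger inhibition. The assay is labelled LdHisRS but filed under L. infantum. About 69,000 compounds were tested under these conditions; 0.6% (about 410) showed 50% or more at least once.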

Values are the deposited “Percent Effect”, in %. The controls that fix the scale are not given in the record; negative values are as filed. This is an unselected part of the compounds tested. A dash means the value is not listed here; it may have been measured.

| compound | A | B | C |
|---|---|---|---|
| `CCOCCNC(=O)c1cnc(Sc2nccn2C)c(Cl)c1` | 2.793 | 6.048 | 23.68 |
| `Cc1cnn(CC2CCCCN2C(=O)c2ccc3[nH]c(=O)[nH]c3c2)c1` (stereo unspecified) | 4.373 | 3.394 | 13.27 |
| `Cc1nc(CN2CCO[C@@H]3CN(C(=O)CC4CC4)CC[C@@H]3C2)cs1` | 12.4 | 11.34 | 12.73 |
| `CS(=O)(=O)NCCC(=O)NCc1cccnc1-n1cnc2ccccc21` | -1.02 | 4.365 | 11.11 |
| `c1ccc(O[C@@H]2CO[C@@]3(CCCN(CC4CCOCC4)C3)C2)nc1` | 9.184 | 3.337 | 19 |
| `C[C@H]1C[C@@H]2CCN(C(=O)c3cccn3C)C[C@H]2O1` | 4.972 | 6.17 | 6.015 |
| `CCn1c(CN(C)CC(F)(F)F)nc2c(F)cccc21` | -0.8403 | 0 | -3.509 |
| `O=c1c2cn[nH]c2nc(SCCN2CCOCC2)n1-c1ccccc1` | 8.247 | 0.2237 | 17.24 |
| `CCN(CC)S(=O)(=O)CC(=O)N1CCc2ccc(F)cc21` | 9.392 | 2.427 | 16.87 |
| `CC(c1ccncn1)N(C)S(=O)(=O)NCc1ccccc1` (stereo unspecified) | 9.045 | 0.9709 | 17.65 |
| `CN(Cc1ccsc1)C(=O)c1cc2c([nH]c1=O)CCCC2=O` | 3.448 | 7.42 | 15.38 |
| `CN1CCC(N(CCc2ccccc2)C(=O)c2ccc(CO)cc2)CC1` | 4.95 | -3.027 | 16.3 |
| `CSc1ncccc1C(=O)NCC(c1ccco1)N(C)C` (stereo unspecified) | 0 | -4.481 | 16.48 |
| `CN(Cc1cccc(F)c1)C1CCN(CCc2ccccn2)CC1` | 0.3831 | 1.349 | 18.46 |
| `COc1cccc2c1ccn2CCNC(=O)C(C)C` | -1.639 | 1.48 | 25.24 |
| `CCN(CC)C(=O)CSc1nc2c(cnn2CCO)c(=O)[nH]1` | 10.55 | -0.6017 | 13.48 |
| `O=C(Nc1cnn(Cc2ccc(F)cc2Cl)c1)C1CC1` | 1.754 | -2.181 | 15.93 |
| `Cc1csc2c(C3CCN(C(=O)Cn4cncn4)CC3)nc(C)n12` | 8.046 | -4.369 | 7.143 |
| `CCc1noc(C(C)N2CCC(NS(=O)(=O)c3cccs3)CC2)n1` (stereo unspecified) | 3.922 | -18.18 | 13.33 |
| `O=S(=O)(c1ccc(F)cc1Cl)N1CCCC1c1ccncc1` (stereo unspecified) | 10.1 | 0.3367 | 20.21 |
| `O=C(NCCn1cccc1)C1CCC(=O)N(C2CCCC2)C1` (stereo unspecified) | 5.263 | 0.1233 | 6.452 |
| `Cc1csc(N(C)C(=O)C2CC(=O)N(c3ccccc3F)C2)n1` (stereo unspecified) | 5.978 | -2.893 | 8 |
| `CCOc1cc([C@@H]2N[C@H](c3nccs3)Cc3ccsc32)ccc1OC` | 9.091 | -6.412 | 9.859 |
| `COc1cc(CNCCc2cc(F)cc3c2OCOC3)cc(OC)c1` | 1.339 | 2.296 | 16.05 |
| `CCN(CC)c1ncc2c(c1C(=O)O)CCN(C1CCOC1)C2` (stereo unspecified) | 1.266 | - | 12.07 |
| `Cc1nc2ccccc2n1CCNCc1cccc(O)c1` | 12.98 | -4.198 | 24.39 |
| `CC(C)Cc1nc(CN2CCOC(Cn3cncn3)C2)no1` (stereo unspecified) | 2.924 | 5.867 | 7.273 |
| `CC(C)=CCN1C(=O)[C@H]2CC[C@@H]1CN(Cc1cccnc1N)C2` | 5.691 | 0.8439 | 8.654 |
| `COc1ccc(-c2nnc(CNCCn3cc(C)cn3)o2)cc1` | -0.2849 | -8.579 | 1.709 |
| `CCn1ccnc1CN1CCCC1C(=O)Nc1nccs1` (stereo unspecified) | 3.333 | -3.502 | 11.71 |
| `CCc1c(C)sc2c1c(N)nc(=O)n2CCCN(C)C` | 8.808 | 1.302 | -48.31 |
| `COc1cc(C)nc(N2CCN(C(=O)c3ccccc3C)CC2)n1` | 0 | 4.389 | 21.43 |
| `NC(=O)C1(CCCc2ccccn2)CCCN(CCO)C1` (stereo unspecified) | 6.667 | -0.7264 | 12.37 |
| `O=C(NCc1c(F)cccc1F)C1CN(C(=O)c2cnccn2)C1` | 2.062 | 0.2114 | 10.43 |
| `CC(C)Oc1ncccc1CNC(=O)Nc1ccccn1` | 3.944 | 3.69 | 14.78 |
| `COc1ccc(CCC(=O)Nc2ccc3ncn(C)c(=O)c3c2)cc1` | 6.736 | -12.5 | 16.85 |
| `Cc1noc(C)c1CN1CCC2(CC1)C(c1ccccc1)CC(=O)N2C` (stereo unspecified) | 3.175 | 3.951 | 8.182 |
| `COCCOCC(=O)Nc1ccnn1-c1ccc(Cl)cc1` | 2.155 | 0.3802 | 16.46 |
| `COCCn1ccc(NC(=O)Nc2ccccn2)n1` | 1.667 | 9.053 | 13.21 |
| `O=C1CC2(CCN(Cc3ncc[nH]3)CC2)CN1Cc1ccc(Cl)cc1` | 6.667 | 0 | 5.983 |
| `O=C(c1ccncc1)N1C[C@@H]2CC[C@H](C1)N(C(=O)N1CCOCC1)C2` | 6.224 | -2.679 | 12.62 |
| `O=c1n(Cc2ncccn2)nc(C2CCNCC2)n1-c1ccccc1` | 3.784 | -7.273 | 16.44 |
| `CCc1sc(-c2nnc(CNC(C)Cn3cccn3)o2)cc1C` (stereo unspecified) | 2.02 | 2.593 | 4.762 |
| `Cc1ccc(N2CC[C@H]3[C@@H]2CCC(=O)N3CCN2CCOCC2)nn1` | 3.681 | - | 18.8 |
| `Cc1nnc2n1CCN(Cc1ncc(-c3ccccc3)o1)C2` | 2.959 | 7.985 | 8.929 |
| `Cc1nc[nH]c1CN1C[C@@H]2CC[C@H](C1)N(C(=O)c1cnn(C)c1)C2` | 3.125 | 0.5102 | 11.11 |
| `COCC(=O)N1CCC(C(=O)Nc2ccc(C(C)=O)cc2)CC1` | 7.071 | 1.023 | 3.279 |
| `CCC(CNC(C)=O)(OC)c1ccccc1` (stereo unspecified) | 1.031 | 12.9 | 6.957 |
| `c1cnn(CC2CN(c3ncnc4ccsc34)CCO2)c1` (stereo unspecified) | 13.37 | -4.348 | 13.46 |
| `CCc1nc(CNC(=O)C2CCC(=O)N(Cc3ccccc3F)C2)no1` (stereo unspecified) | -6.763 | 1.118 | -75.83 |
| `Cc1cccc2nc(C(=O)N3CCC(Nc4cccnn4)CC3)cn12` | 0.3774 | 8.974 | 10.67 |
| `CC(C)c1noc(CCCC(=O)N2CCN(Cc3ccncc3)CC2)n1` | -3.008 | 1.542 | 1.124 |
| `CNC(=O)C1(CCCc2ccncc2)CCCN1` (stereo unspecified) | 2.703 | -1.944 | 16.67 |
| `CCS(=O)(=O)CC(=O)NC1CCc2nccn2C1` (stereo unspecified) | 6.667 | 12.4 | 16.96 |
| `OC1(CNc2cc(C(F)(F)F)nc3ccccc23)CCOCC1` | 1.093 | 7.579 | 16.44 |
| `COc1ccc(CN(C)Cc2c(C)noc2C)c(Cl)c1OC` | -1.739 | -2.45 | 3.333 |
| `Cc1cn([C@H]2CCNC[C@]2(C)O)c(=O)[nH]c1=O` | 4.286 | 10.96 | 6.711 |
| `N#Cc1cccc(N2CCCC3(CN(C(=O)c4ccc[nH]4)CCO3)C2)c1` (stereo unspecified) | 0.5348 | -0.4167 | 19.66 |
| `Cc1ccc(C)c(S(=O)(=O)CCNC2CCc3ncnn3C2)c1` (stereo unspecified) | 8.832 | -11.26 | 10.26 |
| `Cc1ccc(NC(=O)C2CSCN2C(=O)c2cnccn2)cc1C` (stereo unspecified) | 1.466 | 1.842 | 12.04 |
| `O=C(c1ccc(C2CCNC2)cc1)N1CCC(N2CCC(O)CC2)CC1` (stereo unspecified) | 7.317 | 8.734 | 22.89 |
| `CCOC(=O)Cc1n[nH]c(-c2cncc(Br)c2)n1` | 0.8772 | 8.381 | 19.47 |
| `CC(=O)Nc1ccc2c(c1)nc1n2[C@@H](CNCc2ccccc2)COC1` | 9.901 | 12.87 | 25 |
| `CCN1CCN(C2CCN(C(C(N)=O)c3ccc(F)cc3)CC2)C1=O` (stereo unspecified) | 5.419 | -0.6329 | -9.091 |

The last 4 entries again:

compound,A,B,C
O=C(c1ccc(C2CCNC2)cc1)N1CCC(N2CCC(O)CC2)CC1 (stereo unspecified),7.317,8.734,22.89
CCOC(=O)Cc1n[nH]c(-c2cncc(Br)c2)n1,0.8772,8.381,19.47
CC(=O)Nc1ccc2c(c1)nc1n2[C@@H](CNCc2ccccc2)COC1,9.901,12.87,25
CCN1CCN(C2CCN(C(C(N)=O)c3ccc(F)cc3)CC2)C1=O (stereo unspecified),5.419,-0.6329,-9.091

Data taken from ChEMBL document CHEMBL3988442, “University of Dundee, Small-Polar-MMV Screening Library” (2021).